Experimental data reported in PubChem BioAssay AID2685 (National Center for Advancing Translational Sciences (NCATS), 2010).
The list shows a part of the results. The main result of the screen is listed elsewhere. These columns were measured beside it and carry no call. Most of these compounds were active or inconclusive in the main read-out, so they are no random draw. Potencies come from curve fits of mixed quality, noted in brackets.

Test: qHTS Assay for Lipid Storage Modulators in Drosophila S3 Cells;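 on cell number change: cells counted by Cell Tracker Red CMTPX staining in the red channel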
Settings: BODIPY lipid droplet fluorescence, 18-24 h; for cell number change: measured here: cell count max response, cells fed with added oleic acid
In short: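 Laser-scanning cytometry quantifies lipid droplet accumulation (500–530 nm total intensity; droplet/cell object ratio) in oleic acid-fed (400 uM added) Drosophila S3 cells treated with a concentration series. 20 uM Triacsin C defined 100% inhibition.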

[1] = measured here: lipid fluorescence (Fed channel) AC50, cells fed with added oleic acid
[2] = measured here: cell number channel AC50, cells fed with added oleic acid

SMILES | cell number change | AC50 [1] | AC50 [2]
O=C(CN1C(=O)COc2ccccc21)Nc1ccc(F)cc1 | -0.759% | 29.1 µM [falling, single point] | 
CCc1c(O)nc(SCC(=O)N2CCCCC2)n(-c2ccccc2C)c1=O | -33.8% |  | 20.6 µM [falling, single point]
Cc1cc(NC(=O)Cn2nc(C(=O)O)c3ccccc3c2=O)c([N+](=O)[O-])cc1C | 22.7% | 11.6 µM [falling, partial curve] | 
Cc1nn(C)c2c(=O)c(=O)c2n(C)[nH]1 |  | 1.16 µM [falling, full curve] | 4.11 µM [falling, partial curve]
COc1cc(C(=O)NNC(=O)c2n[nH]c3ccccc23)cc(OC)c1OC | -14.5% | 0.13 µM [rising, partial curve, poor fit] | 
CCOC(=O)c1cc(CC)sc1NC(=O)c1ccc2c(c1)OCCO2 | -3.97% | 13 µM [rising, partial curve, poor fit] | 
CC1(C)CC(NC(=O)CC2CCCCC2)CC(C)(C)N1 | 0.833% | 5.17 µM [falling, full curve] | 
Nc1c(C(=O)NCc2ccc3c(c2)OCO3)nnn1Cc1ccc(Br)cc1 | 33.2% | 0.092 µM [rising, full curve] | 0.0731 µM [rising, full curve]
CCOc1cc(Br)c(CC(=O)NC2CCCCCC2)cc1OCC | -7.89% |  | 
O=S(=O)(NCC(c1ccc2c(c1)OCO2)N1CCOCC1)c1ccc(Cl)cc1 (stereo not given) | -5.98% | 1.3 µM [rising, full curve, poor fit] | 
CN(C)C(=O)N1CCN(C(=O)c2ccco2)CC1 | -24.8% | 25.9 µM [falling, partial curve] | 
CCCCN(C)c1c(N2CCC(C(=O)OCC)CC2)c(=O)c1=O | 20.8% | 0.731 µM [rising, partial curve, poor fit] | 
CCOc1cccc(C(=O)N(Cc2ccc(F)cc2)C2CCS(=O)(=O)C2)c1 (stereo not given) |  | 29.1 µM [rising, single point] | 
NC(=O)CSc1n[nH]c(=O)n1CCc1ccccc1 | 28.4% |  | 
COc1cccc(C(=O)Nc2cc(NC(=O)c3cccs3)ccc2C)c1 | -32% |  | 16.4 µM [falling, single point]
CCOC(=O)N1CCN(c2ccc(N3C(=O)CCCC3=O)cc2[N+](=O)[O-])CC1 | -2.34% | 0.82 µM [falling, full curve] | 0.92 µM [falling, full curve, poor fit]
Cc1ccccc1Nc1nc(N)nc(COC(=O)c2ccc(O)cc2)n1 | 7.09% |  | 
COC(=O)Cc1c(C)c2c(OCc3nn[nH]n3)cc(C)cc2oc1=O | 2.03% | 0.731 µM [falling, full curve, poor fit] | 
Cc1ccc(NC(=S)N2CCN(CCN3C(=O)c4cccc5cccc(c45)C3=O)CC2)cc1 | 1.61% | 0.58 µM [rising, full curve, poor fit] | 0.731 µM [rising, single point]
CCOc1ccccc1NC(=O)NC(=O)N(C)S(=O)(=O)c1ccc(C)cc1 | 13.3% | 4.61 µM [rising, single point] | 

SMILES | cell number change | AC50 [1] | AC50 [2]
CNC(=S)N/N=C/c1ccc(-c2ccc(Cl)c([N+](=O)[O-])c2)o1 | -28.8% | 29.1 µM [falling, single point] | 
CC(NC(=O)C(=O)NCC1CCCO1)c1ccccc1 (stereo not given) | 16.6% | 0.092 µM [rising, full curve, poor fit] | 
CCOC(=O)CCc1c(C)nc2cc(-c3ccccc3OC)[nH]n2c1=O | -47.9% | 20.6 µM [falling, partial curve] | 20.6 µM [falling, partial curve]
Cc1c(Nc2cc(N3CCCC(C)C3)c3nonc3c2[N+](=O)[O-])c(=O)n(-c2ccccc2)n1C (stereo not given) | 51.5% |  | 
COc1ccc(OC)c(-c2csc(NC(=O)Cc3ccccc3)n2)c1 | 14.1% | 0.13 µM [falling, partial curve, poor fit] | 
Oc1ccccc1N1CCN(C(=S)NCc2ccccc2)CC1 | 13.4% |  | 
COC(=O)CSc1nc2c(c(-c3ccco3)c1C#N)CCCC2 | -42.4% | 20.6 µM [falling, partial curve] | 9.2 µM [falling, partial curve]
COc1ccc(CCNC(=O)C(C)n2nc(C)c3c(C)n(-c4ccc(C)cc4)nc3c2=O)c(OC)c1 (stereo not given) | -20.6% | 1.84 µM [rising, partial curve] | 
CC1C/C(=N/N=C2/NC(=O)CS2)CC(C)(C)C1 (stereo not given) | 0.0265% |  | 
O=C1N(c2ccc3c(c2)OCCO3)C(c2ccccc2)C1(F)F (stereo not given) | 22.1% | 6.51 µM [rising, partial curve] | 
Cc1ccc(NC(=O)c2cncc(Br)c2)c([N+](=O)[O-])c1 | 22.4% | 29.1 µM [rising, single point] | 
COC(=O)c1ccc(NC(=O)CSC2=NC(=O)C(c3ccccc3)C(=O)N2)cc1 (stereo not given) | 82.3% |  | 0.731 µM [rising, full curve, poor fit]
CCOc1ccccc1OCC(=O)NC1CCCCC1 | 38.7% |  | 3.26 µM [rising, full curve]
COc1ccc(NS(=O)(=O)c2cc(NC(=O)c3cc(=O)c4ccccc4o3)ccc2OC)cc1 | -22.7% | 29.1 µM [falling, single point] | 
CC1=N/C(=C\c2ccc3c(c2)OCO3)C(=O)N1c1ccc(C(=O)O)cc1 | 2.77% |  | 
O=C(COC(=O)c1ccccc1O)NCC1COc2ccccc2O1 (stereo not given) | 19.5% | 2.31 µM [rising, partial curve, poor fit] | 
CN1CCc2c1nc1ccccc1c2N (tested in a mixture with another compound) |  | 6.51 µM [falling, single point] | 
Cc1noc(C)c1CSCC(=O)Nc1cc(Cl)ccc1N1CCCCC1 |  |  | 2.91 µM [rising, single point]
CCn1cc(C(=O)OCc2ccc(F)cc2)c(=O)c2ccc(C)nc21 | 64.4% | 0.326 µM [rising, full curve] | 29.1 µM [rising, single point]
O=C(CCl)Nc1ccccc1Sc1ccc(Cl)cc1 | 8.58% | 1.84 µM [falling, partial curve] | 

SMILES | cell number change | AC50 [1] | AC50 [2]
CCCCn1c(SCC(=O)Nc2cc(C(F)(F)F)cc(C(F)(F)F)c2)nnc1C(CC)N(C)C (stereo not given) | -40.8% | 2.59 µM [falling, full curve] | 9.2 µM [falling, partial curve, poor fit]
CCOc1ccc(NC(=O)COC(=O)CCN2C(=O)C3CC=CCC3C2=O)cc1OCC (stereo not given) | -26.1% | 3.26 µM [rising, single point] | 
O=S(=O)(NCC1CCCO1)c1cc(Cl)ccc1Cl (stereo not given) | 44.1% |  | 10.3 µM [rising, partial curve, poor fit]
CCCCCCSc1ccc([C@H]2N[C@@](C)(C(=O)OC)[C@H]3C(=O)N(CC)C(=O)[C@@H]23)cc1 | -40.4% | 23.1 µM [falling, partial curve, poor fit] | 32.6 µM [falling, single point]
COc1ccc(CC(=O)NNC(=O)c2cc(Cl)ccc2OC)cc1 | 96.8% |  | 29.1 µM [rising, single point]
O=C1C(=O)N(CCN2CCOCC2)C(c2cccc(Cl)c2)/C1=C(/O)c1ccc2c(c1)OCO2 (stereo not given) | 14% | 0.146 µM [falling, full curve, poor fit] | 
CC(C)CC[n+]1ccn(-c2nc3ccccc3nc2[N-]S(=O)(=O)c2ccccc2)c1 | -13.2% | 0.164 µM [falling, full curve, poor fit] | 
Cc1nc2ccc(S(=O)(=O)N(C)CC(=O)NCCc3ccccc3)cc2s1 | 16% | 0.0517 µM [rising, full curve, poor fit] | 
CC(=O)c1cccc(NC(=O)c2ccc(S(=O)(=O)N3CCCC3)cc2)c1 | 23.9% | 0.231 µM [falling, full curve, poor fit] | 
CCC(C)c1ccccc1N1CC(C(=O)NCCCn2nc(C)cc2C)CC1=O (stereo not given) | 21.8% | 0.116 µM [rising, full curve, poor fit] | 0.0517 µM [rising, full curve, poor fit]
CCOC(=O)C(CC)Sc1nc2c(c(=O)[nH]c(=O)n2C)n1CCc1ccccc1 (stereo not given) | -29% |  | 
COc1cccc(NC(=O)c2ccc(NC(=O)C3CC(=O)OC34CCCCC4)cc2)c1 (stereo not given) | 117% |  | 23.1 µM [rising, partial curve, poor fit]
CSc1nc(N2CCOCC2)c2c3c(sc2n1)CCC3 | -21.9% |  | 
O=C(/C=C/c1cccs1)N1CCN(c2ccccc2F)CC1 | -52.2% | 4.11 µM [falling, single point] | 0.517 µM [falling, full curve]
COc1ccc2c(CC(=O)Nc3nnc(C4CC4)s3)coc2c1 |  | 6.51 µM [rising, single point] | 
N#C/C(=C(/O)c1cccs1)c1nnc2n1CCCCC2 | -42.2% | 29.1 µM [falling, single point] | 8.2 µM [falling, partial curve]
CN(C)CCCn1c(NC(=O)C2CCCCC2)nc2ccccc21 | -14.6% | 1.03 µM [falling, full curve] | 
Cc1ccc(/C=C/C(=O)NC2CCS(=O)(=O)C2)cc1 (stereo not given) | 31% | 0.164 µM [rising, full curve, poor fit] | 3.26 µM [rising, full curve]

In the list so far, two have a COOH group:
SMILES | cell number change | AC50 [1] | AC50 [2]
Cc1cc(NC(=O)Cn2nc(C(=O)O)c3ccccc3c2=O)c([N+](=O)[O-])cc1C | 22.7% | 11.6 µM [falling, partial curve] | 
CC1=N/C(=C\c2ccc3c(c2)OCO3)C(=O)N1c1ccc(C(=O)O)cc1 | 2.77% |  | 

A stretch taken from the entries so far, for reference:
SMILES | cell number change | AC50 [1] | AC50 [2]
O=C1N(c2ccc3c(c2)OCCO3)C(c2ccccc2)C1(F)F (stereo not given) | 22.1% | 6.51 µM [rising, partial curve] | 
Cc1ccc(NC(=O)c2cncc(Br)c2)c([N+](=O)[O-])c1 | 22.4% | 29.1 µM [rising, single point] | 
